{"sequences": {"note": "Amino acid sequences for entries named in this document (tags omitted). A change or cut given only in a name is not applied to a line headed by its entry.", "UniProt Q5S007": "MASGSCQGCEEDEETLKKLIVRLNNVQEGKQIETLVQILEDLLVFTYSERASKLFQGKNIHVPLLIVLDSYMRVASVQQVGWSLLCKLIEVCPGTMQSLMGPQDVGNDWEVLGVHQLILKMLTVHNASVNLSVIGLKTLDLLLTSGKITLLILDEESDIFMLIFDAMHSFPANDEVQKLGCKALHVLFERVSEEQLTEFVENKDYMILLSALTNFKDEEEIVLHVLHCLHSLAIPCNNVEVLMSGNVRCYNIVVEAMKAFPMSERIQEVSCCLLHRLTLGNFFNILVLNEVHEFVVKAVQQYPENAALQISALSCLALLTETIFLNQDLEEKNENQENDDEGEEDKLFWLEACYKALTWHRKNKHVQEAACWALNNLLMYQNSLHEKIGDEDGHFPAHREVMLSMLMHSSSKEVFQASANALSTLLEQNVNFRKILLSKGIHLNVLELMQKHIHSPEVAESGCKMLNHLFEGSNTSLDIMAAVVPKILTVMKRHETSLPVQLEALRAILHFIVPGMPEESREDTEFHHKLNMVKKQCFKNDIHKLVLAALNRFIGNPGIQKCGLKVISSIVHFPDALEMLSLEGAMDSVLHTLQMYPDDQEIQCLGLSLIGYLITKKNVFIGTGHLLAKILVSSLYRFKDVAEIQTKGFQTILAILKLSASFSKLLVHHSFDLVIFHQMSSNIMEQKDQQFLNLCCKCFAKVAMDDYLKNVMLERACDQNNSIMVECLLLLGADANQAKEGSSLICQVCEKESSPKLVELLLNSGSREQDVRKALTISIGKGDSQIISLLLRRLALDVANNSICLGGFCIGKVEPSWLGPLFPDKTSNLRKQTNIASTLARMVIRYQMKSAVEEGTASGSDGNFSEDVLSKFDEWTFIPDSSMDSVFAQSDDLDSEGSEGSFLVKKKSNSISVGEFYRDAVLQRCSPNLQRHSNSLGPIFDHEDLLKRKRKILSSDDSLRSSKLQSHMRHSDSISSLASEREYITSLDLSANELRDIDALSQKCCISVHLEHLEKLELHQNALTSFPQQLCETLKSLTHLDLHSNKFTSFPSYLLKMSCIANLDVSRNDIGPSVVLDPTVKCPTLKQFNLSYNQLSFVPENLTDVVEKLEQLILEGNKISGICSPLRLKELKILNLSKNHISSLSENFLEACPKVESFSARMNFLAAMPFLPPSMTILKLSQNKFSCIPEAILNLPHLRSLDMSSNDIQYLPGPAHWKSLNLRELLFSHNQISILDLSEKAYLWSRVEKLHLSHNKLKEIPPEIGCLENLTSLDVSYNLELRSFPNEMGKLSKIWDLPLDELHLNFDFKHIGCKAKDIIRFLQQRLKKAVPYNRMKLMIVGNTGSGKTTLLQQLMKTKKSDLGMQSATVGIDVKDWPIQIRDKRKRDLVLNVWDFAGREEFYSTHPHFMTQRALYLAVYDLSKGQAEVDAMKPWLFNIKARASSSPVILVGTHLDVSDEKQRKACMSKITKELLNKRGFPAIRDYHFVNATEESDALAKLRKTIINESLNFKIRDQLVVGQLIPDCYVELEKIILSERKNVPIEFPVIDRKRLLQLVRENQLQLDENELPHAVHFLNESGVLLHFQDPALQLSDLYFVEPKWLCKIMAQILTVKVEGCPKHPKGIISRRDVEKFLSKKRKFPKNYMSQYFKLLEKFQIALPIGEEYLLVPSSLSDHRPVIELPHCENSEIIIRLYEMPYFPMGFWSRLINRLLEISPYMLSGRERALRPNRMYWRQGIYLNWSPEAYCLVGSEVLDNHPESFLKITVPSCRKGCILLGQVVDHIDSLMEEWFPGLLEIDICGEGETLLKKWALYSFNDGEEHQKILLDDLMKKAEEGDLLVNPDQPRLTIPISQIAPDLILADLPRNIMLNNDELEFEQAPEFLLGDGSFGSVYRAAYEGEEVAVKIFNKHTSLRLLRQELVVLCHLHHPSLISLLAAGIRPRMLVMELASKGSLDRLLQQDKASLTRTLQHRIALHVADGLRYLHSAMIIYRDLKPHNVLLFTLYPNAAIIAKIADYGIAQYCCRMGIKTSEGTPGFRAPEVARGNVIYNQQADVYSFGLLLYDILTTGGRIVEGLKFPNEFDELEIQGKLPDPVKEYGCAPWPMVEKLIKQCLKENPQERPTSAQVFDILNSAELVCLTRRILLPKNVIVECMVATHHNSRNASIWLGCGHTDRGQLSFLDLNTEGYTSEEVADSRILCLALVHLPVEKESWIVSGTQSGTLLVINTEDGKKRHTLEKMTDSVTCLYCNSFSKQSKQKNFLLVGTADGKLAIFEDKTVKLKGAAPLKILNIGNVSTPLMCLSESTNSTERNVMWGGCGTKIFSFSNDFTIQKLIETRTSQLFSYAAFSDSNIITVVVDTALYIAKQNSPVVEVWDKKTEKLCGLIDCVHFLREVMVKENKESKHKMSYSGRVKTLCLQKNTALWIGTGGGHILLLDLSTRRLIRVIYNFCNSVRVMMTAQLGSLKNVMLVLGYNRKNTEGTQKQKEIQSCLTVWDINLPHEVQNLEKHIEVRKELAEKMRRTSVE"}, "source": "patent US20220380374A1", "about": "“1,4-DIHYDROBENZO[D]PYRAZOLO[3,4-F][1,3]DIAZEPINE DERIVATIVES AND RELATED COMPOUNDS AS LRRK2, NUAK1 AND/OR TYK2 KINASE MODULATORS FOR THE TREATMENT OF E.G. AUTOIMMUNE DISEASE” (Origenis GMBH, priority 2019, published 2022)", "note": "Some results were stated once for a whole list of compounds, not compound by compound.", "data": [{"target": "T1, LRRK2 (Wt) and LRRK2 (G2019) (Homo sapiens, UniProt Q5S007)", "T1 construct": "fused on or other part: GST tag, inferred from the Eu-Anti-GST antibody used for detection", "assay": "TR-FRET LanthaScreen Eu Kinase Binding Assay, LRRK2", "conditions": "one value class stated for wt and G2019 LRRK2 together; 10 nM Kinase Tracer 236; read-out: IC50, inhibitory activity toward LRRK2 (Wt) and LRRK2 (G2019)", "units": {"IC50": "nM"}, "values": [{"smiles": "CCc1cc(F)c2c(c1)-c1[nH]nc(Cl)c1NC(c1c(F)cccc1F)=N2", "note": "[Compound 168, 3-chloro-5-(2,6-difluorophenyl)-9-ethyl-7-fluoro-1,4-dihydrobenzo[d]pyrazolo[3,4-f][1,3]diazepine]", "IC50": "< 10"}, {"smiles": "COc1ccc2c(c1F)N=C(c1c(F)cccc1F)Nc1cn[nH]c1-2", "note": "[Compound 169, 5-(2,6-difluorophenyl)-7-fluoro-8-methoxy-1,4-dihydrobenzo[d]pyrazolo[3,4-f][1,3]diazepine]", "IC50": "< 10"}, {"smiles": "Fc1cccc(F)c1C1=Nc2c(Cl)n[nH]c2-c2cc(Cl)ncc2N1", "note": "[Compound 171, 3,9-dichloro-5-(2,6-difluorophenyl)-1,6-dihydropyrazolo[4,3-d]pyrido[4,3-f][1,3]diazepine]", "IC50": "< 10"}, {"smiles": "Cc1ccc2c(c1)-c1[nH]ncc1N=C(c1c(C)cccc1F)N2", "note": "[Compound 172, 5-(2-fluoro-6-methylphenyl)-9-methyl-1,6-dihydrobenzo[d]pyrazolo[3,4-f][1,3]diazepine]", "IC50": "< 10"}, {"smiles": "COc1cc(F)c(C2=Nc3cn[nH]c3-c3cc(C)ccc3N2)c(F)c1", "note": "[Compound 173, 5-(2,6-difluoro-4-methoxyphenyl)-9-methyl-1,6-dihydrobenzo[d]pyrazolo[3,4-f][1,3]diazepine]", "IC50": "< 10"}, {"smiles": "Cc1ccc2c(c1)-c1[nH]ncc1N=C(c1c(F)cc(F)cc1F)N2", "note": "[Compound 175, 9-methyl-5-(2,4,6-trifluorophenyl)-1,6-dihydrobenzo[d]pyrazolo[3,4-f][1,3]diazepine]", "IC50": "< 10"}, {"smiles": "Cc1ccc2c(c1)-c1[nH]ncc1N=C(c1c(F)cc(Br)cc1F)N2", "note": "[Compound 176, 5-(4-bromo-2,6-difluorophenyl)-9-methyl-1,6-dihydrobenzo[d]pyrazolo[3,4-f][1,3]diazepine]", "IC50": "< 10"}, {"smiles": "Cc1ccc2c(c1)-c1n[nH]cc1NC(c1c(F)ccc(C)c1F)=N2", "note": "[Compound 178, 5-(2,6-difluoro-3-methylphenyl)-9-methyl-2,4-dihydrobenzo[d]pyrazolo[3,4-f][1,3]diazepine]", "IC50": "< 10"}, {"smiles": "Cc1cc(F)c(C2=Nc3ccc(C)cc3-c3n[nH]cc3N2)c(F)c1", "note": "[Compound 179, 5-(2,6-difluoro-4-methylphenyl)-9-methyl-2,4-dihydrobenzo[d]pyrazolo[3,4-f][1,3]diazepine]", "IC50": "< 10"}, {"smiles": "Cc1ccc2c(c1)-c1[nH]ncc1NC(c1c(F)ccc(F)c1F)=N2", "note": "[Compound 182, 9-methyl-5-(2,3,6-trifluorophenyl)-1,4-dihydrobenzo[d]pyrazolo [3,4-f][1,3]diazepine]", "IC50": "< 10"}, {"smiles": "Cc1ccc2c(c1)-c1[nH]ncc1NC(c1c(F)ccc(Br)c1Cl)=N2", "note": "[Compound 183, 5-(3-bromo-2-chloro-6-fluorophenyl)-9-methyl-1,4-dihydrobenzo [d]pyrazolo[3,4-f][1,3]diazepine]", "IC50": "< 10"}, {"smiles": "Cc1ccc2c(c1)-c1[nH]ncc1NC(c1c(Cl)ccc(Br)c1F)=N2", "note": "[Compound 184, 5-(3-bromo-6-chloro-2-fluorophenyl)-9-methyl-1,4-dihydrobenzo [d]pyrazolo[3,4-f][1,3]diazepine]", "IC50": "< 10"}, {"smiles": "Cc1ccc2c(c1)-c1[nH]ncc1NC(c1c(Cl)ccc(F)c1F)=N2", "note": "[Compound 186, 5-(6-chloro-2,3-difluorophenyl)-9-methyl-1,4-dihydrobenzo[d]pyrazolo[3,4-f][1,3]diazepine]", "IC50": "< 10"}, {"smiles": "Fc1cccc(Cl)c1C1=Nc2cn[nH]c2-c2cc(N3CCOCC3)ccc2N1", "note": "[Compound 187, 4-(5-(2-chloro-6-fluorophenyl)-1,6-dihydrobenzo[d]pyrazolo[3,4-f][1,3]diazepin-9-yl)morpholine]", "IC50": "< 10"}, {"smiles": "Fc1cccc(Cl)c1C1=Nc2cnc(C(F)(F)F)cc2-c2[nH]ncc2N1", "note": "[Compound 188, 5-(2-chloro-6-fluorophenyl)-9-(trifluoromethyl)-1,4-dihydropyrazolo[4,3-d]pyrido[4,3-f][1,3]diazepine]", "IC50": "< 10"}, {"smiles": "Fc1cccc(Cl)c1C1=Nc2cnc(Cl)cc2-c2n[nH]cc2N1", "note": "[Compound 190, 9-chloro-5-(2-chloro-6-fluorophenyl)-2,4-dihydropyrazolo[4,3-d]pyrido[4,3-f][1,3]diazepine]", "IC50": "< 10"}, {"smiles": "Fc1cccc(F)c1C1=Nc2cn[nH]c2-c2cc(N3CCC(F)(F)CC3)ccc2N1", "note": "[Compound 191, 5-(2,6-difluorophenyl)-9-(4,4-difluoropiperidin-1-yl)-1,6-dihydrobenzo[d]pyrazolo[3,4-f][1,3]diazepine]", "IC50": "< 10"}, {"smiles": "Fc1cccc(Cl)c1C1=Nc2cn[nH]c2-c2cc(N3CCC(F)(F)CC3)ccc2N1", "note": "[Compound 192, 5-(2-chloro-6-fluorophenyl)-9-(4,4-difluoropiperidin-1-yl)-1,6-dihydrobenzo[d]pyrazolo[3,4-f][1,3]diazepine]", "IC50": "< 10"}, {"smiles": "Fc1cc(F)c(C2=Nc3ccc(Cl)cc3-c3n[nH]cc3N2)c(F)c1", "note": "[Compound 194, 9-chloro-5-(2,4,6-trifluorophenyl)-2,4-dihydrobenzo[d]pyrazolo[3,4-f][1,3]diazepine]", "IC50": "< 10"}, {"smiles": "Fc1cccc(F)c1C1=Nc2cn[nH]c2-c2cc(N3CC(F)(F)C3)ccc2N1", "note": "[Compound 195, 9-(3,3-difluoroazetidin-1-yl)-5-(2,6-difluorophenyl)-1,6-dihydrobenzo[d]pyrazolo[3,4-f][1,3]diazepine]", "IC50": "< 10"}, {"smiles": "Fc1cccc(Cl)c1C1=Nc2cn[nH]c2-c2cc(N3CC(F)(F)C3)ccc2N1", "note": "[Compound 196, 5-(2-chloro-6-fluorophenyl)-9-(3,3-difluoroazetidin-1-yl)-1,6-dihydrobenzo[d]pyrazolo[3,4-f][1,3]diazepine]", "IC50": "< 10"}, {"smiles": "Fc1cccc(F)c1C1=Nc2cnc(OC(F)F)cc2-c2n[nH]cc2N1", "note": "[Compound 197, 9-(difluoromethoxy)-5-(2,6-difluorophenyl)-2,4-dihydropyrazolo[4,3-d]pyrido[4,3-f][1,3]diazepine]", "IC50": "< 10"}, {"smiles": "O=C(O)c1cc2c(cc1Cl)-c1[nH]ncc1N=C(c1c(F)cccc1F)N2", "note": "[Compound 198, 9-chloro-5-(2,6-difluorophenyl)-1,6-dihydrobenzo[d]pyrazolo[3,4-f][1,3]diazepine-8-carboxylic acid]", "IC50": "< 10"}, {"smiles": "CCNC(=O)c1cc2c(cc1Cl)-c1n[nH]cc1N=C(c1c(F)cccc1F)N2", "note": "[Compound 200, 9-chloro-5-(2,6-difluorophenyl)-N-ethyl-2,6-dihydrobenzo[d]pyrazolo[3,4-f][1,3]diazepine-8-carboxamide]", "IC50": "< 10"}, {"smiles": "CC(C)(C)NC(=O)c1cc2c(cc1Cl)-c1n[nH]cc1N=C(c1c(F)cccc1F)N2", "note": "[Compound 201, N-(tert-butyl)-9-chloro-5-(2,6-difluorophenyl)-2,6-dihydrobenzo[d]pyrazolo[3,4-f][1,3]diazepine-8-carboxamide]", "IC50": "< 10"}, {"smiles": "O=C(NCC(F)(F)F)c1cc2c(cc1Cl)-c1n[nH]cc1N=C(c1c(F)cccc1F)N2", "note": "[Compound 202, 9-chloro-5-(2,6-difluorophenyl)-N-(2,2,2-trifluoroethyl)-2,6-dihydrobenzo[d]pyrazolo[3,4-f][1,3]diazepine-8-carboxamide]", "IC50": "< 10"}, {"smiles": "FCCc1ccc2c(c1)-c1n[nH]cc1NC(c1c(F)cccc1F)=N2", "note": "[Compound 204, 5-(2,6-difluorophenyl)-9-(2-fluoroethyl)-2,4-dihydrobenzo[d]pyrazolo[3,4-f][1,3]diazepine]", "IC50": "< 10"}, {"smiles": "Cc1ccc2c(c1)-c1n[nH]cc1NC(c1c(F)cc(C(F)(F)F)cc1F)=N2", "note": "[Compound 205, 5-(2,6-difluoro-4-(trifluoromethyl)phenyl)-9-methyl-2,4-dihydrobenzo[d]pyrazolo[3,4-f][1,3]diazepine]", "IC50": "< 10"}, {"smiles": "Cc1ccc2c(c1)-c1n[nH]cc1NC(c1c(F)cccc1C(F)(F)F)=N2", "note": "[Compound 206, 5-(2-fluoro-6-(trifluoromethyl)phenyl)-9-methyl-2,4-dihydrobenzo[d]pyrazolo[3,4-f][1,3]diazepine]", "IC50": "< 10"}, {"smiles": "O=C(Nc1ccc2c(c1)-c1n[nH]cc1NC(c1c(F)cccc1F)=N2)OCc1ccccc1", "note": "[Compound 207, benzyl(5-(2,6-difluorophenyl)-2,4-dihydrobenzo[d]pyrazolo[3,4-f][1,3]diazepin-9-yl)carbamate]", "IC50": "< 10"}, {"smiles": "Fc1cccc(F)c1C1=Nc2ccc(CCCl)cc2-c2n[nH]cc2N1", "note": "[Compound 209, 9-(2-chloroethyl)-5-(2,6-difluorophenyl)-2,4-dihydrobenzo[d]pyrazolo[3,4-f][1,3]diazepine]", "IC50": "< 10"}, {"smiles": "Fc1cccc(F)c1C1=Nc2cn[nH]c2-c2cc3c(cc2N1)OCO3", "note": "[Compound 210, 5-(2,6-difluorophenyl)-1,6-dihydro-[1,3]dioxolo[4′,5′:4,5]benzo[1,2-d]pyrazolo[3,4-f][1,3]diazepine]", "IC50": "< 10"}, {"smiles": "CCNC(=O)c1cc2c(cc1F)-c1n[nH]cc1N=C(c1c(F)cccc1F)N2", "note": "[Compound 211, 5-(2,6-difluorophenyl)-N-ethyl-9-fluoro-2,6-dihydrobenzo[d]pyrazolo[3,4-f][1,3]diazepine-8-carboxamide]", "IC50": "< 10"}, {"smiles": "Cc1ccc2c(c1)-c1n[nH]c(C)c1NC(c1c(F)cccc1F)=N2", "note": "[Compound 212, 5-(2,6-difluorophenyl)-3,9-dimethyl-2,4-dihydrobenzo[d]pyrazolo[3,4-f][1,3]diazepine]", "IC50": "< 10"}, {"smiles": "Fc1ccc2c(c1)-c1[nH]ncc1N=C(c1c(F)cc(OC(F)F)cc1F)N2", "note": "[Compound 215, 5-(4-(difluoromethoxy)-2,6-difluorophenyl)-9-fluoro-1,6-dihydrobenzo[d]pyrazolo[3,4-f][1,3]diazepine]", "IC50": "< 10"}, {"smiles": "O=C(NCCF)c1cc2c(cc1F)-c1n[nH]cc1N=C(c1c(F)cccc1F)N2", "note": "[Compound 216, 5-(2,6-difluorophenyl)-9-fluoro-N-(2-fluoroethyl)-2,6-dihydrobenzo[d]pyrazolo[3,4-f][1,3]diazepine-8-carboxamide]", "IC50": "< 10"}, {"smiles": "Cc1ccc2c(c1)-c1n[nH]cc1NC(c1c(F)ccc(C(F)(F)F)c1F)=N2", "note": "[Compound 217, 5-(2,6-difluoro-3-(trifluoromethyl)phenyl)-9-methyl-2,4-dihydrobenzo[d]pyrazolo[3,4-f][1,3]diazepine]", "IC50": "< 10"}, {"smiles": "Nc1ncc2c(n1)N=C(c1c(F)cccc1F)Nc1c[nH]nc1-2", "note": "[Compound 218, 5-(2,6-difluorophenyl)-2,4-dihydropyrazolo[4,3-d]pyrimido[5,4-f][1,3]diazepin-8-amine]", "IC50": "< 10"}]}]}
